Source: ChEMBL document CHEMBL3988442, “University of Dundee, Small-Polar-MMV Screening Library” (2021).

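Viability assay of Plasmodium falciparum sporozoites; the read-out is not stated. The concentration is filed as 10 mM, unlikely as a test dose, so the dose is not known. Higher reads as lower viability (inferred: compounds with an IC50 in retests scored well above the rest). Strong results were mostly tested again. Size under these conditions: about 34,000 compounds, about 280 of them at 50% or above in at least one test.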

The filed quantity is “Percent Effect” (%). The record does not define 0% and 100%; most values in the screen are far below 50% and negative numbers occur (in some assays of this library far below -100). This is an unselected part of the compounds tested.

For O=C(Cc1ccccc1)N1CCC2(CC(=O)N(c3cccc(F)c3)C2)C1 (centres undefined) the result was 6.69%.
For COc1ccsc1C(=O)N1CCCC(n2nc(C)nc2C)C1 (centres undefined) the result was -2.878%.
For CN(C)C(=O)N1CCN(CCn2nc3ccccn3c2=O)CC1 the result was 0.7892%.
For COCC(O)CNc1cncc(Br)c1 (centres undefined) the result was -1.221%.
For Cc1cc(=O)[nH]c(=O)n1Cc1ncc(-c2ccccc2C(=O)O)s1 the result was 4.521%.
For O=C(O)C(F)(F)F.O=C(O)C(F)(F)F.[H][C@@]12CCN(Cc3ccc(C)o3)C[C@]1([H])[C@@H](CN1CCCC1)OC2 the result was 0.4259%.
For CC(NC(=O)CCc1cccs1)c1nnc2n1CCCCC2 (centres undefined) the result was 18.25%.
For CCOc1ccccc1-c1noc(CN2CCOC(CN(C)C)C2)n1 (centres undefined) the result was -0.223%.
For Cc1nn(C)c(C)c1C1CCCN1C(=O)CCc1cscn1 (centres undefined) the result was 1.548%.
For CC(C)c1nn(C)c(N2CCOCC2)c1CN[C@H](C)CO the result was 5.297%.
For Cc1cnn(CC2CCCN2Cc2nnc(C3CC3)n2C)c1 (centres undefined) the result was -0.7427%.
For CN(C)C(=O)NC1COC2(CCN(C(=O)Nc3ccccc3)CC2)C1 (centres undefined) the result was 18.11%.
For Cc1cnn(CC2CCCN2Cc2nccn2CC(F)(F)F)c1 (centres undefined) the result was 10.06%.
For CS(=O)(=O)NCCC(=O)NC1CCc2nccn2C1 (centres undefined) the result was 8.369%.
For Cc1cnn(CCC(=O)N2CCCN(c3ncccc3C#N)CC2)c1 the result was -7.16%.
For Cc1n[nH]c2c1C(c1cnn(C)c1)SCC(=O)N2 (centres undefined) the result was 0.6579%.
For CN(C(=O)COCc1ccccc1)C1CCN(CC2CCOC2)CC1 (centres undefined) the result was -0.6529%.
For CC(=O)N1CCN(C(=O)C2CCN(c3cccnn3)C2)CC1 (centres undefined) the result was -2.715%.
For CC(C)C(=O)N1CCCC1c1nc(N(C)C)ncc1-c1ccc(Cl)cc1 (centres undefined) the result was 5.307%.
For COc1ccc(C2(c3nc(-c4cnn(C)c4)no3)CCOCC2)cc1 the result was 0.333%.
For CCSCCNC(=O)C(c1cccc(C)c1)N(C)C (centres undefined) the result was -1.059%.
For Cc1cccc(C2(CNC(=O)C(C)S(C)(=O)=O)CCCC2)c1 (centres undefined) the result was -5.943%.
For O=C([C@@H]1CCCO1)N1CCOCC2(CCN(Cc3cccnc3)C2)C1 (some centres undefined) the result was 14.99%.
For Cc1cnc(CN2CCCC(c3cc(C(F)(F)F)[nH]n3)C2)cn1 (centres undefined) the result was -19.61%.
For COCc1nc(CN2CCN(c3ccc(OC)cc3)C(=O)C2C)no1 (centres undefined) the result was 1.611%.
For O=C(NC1CCOCC1)c1cccc(C2CCCNC2)c1 (centres undefined) the result was -1.253%.
For [H][C@@]12CN(c3ncc(Cl)cc3F)C[C@]1(C(=O)O)CN(CC1CC1)C2=O the result was -13.38%.
For Cc1nn(-c2ccccc2Cl)c(C)c1CCC(=O)NCCS(C)(=O)=O the result was -9.538%.
For O=C(O)C(F)(F)F.[H][C@@]12COC[C@]1(CNC(=O)C1CC1)CN(Cc1cccc(C)c1)C2 the result was 0.3376%.
For CC(C)c1nc(CCNC(=O)NCc2ccnc(N(C)C)c2)cs1 the result was -14.08%.
For CSCCC(=O)N1CCCN(c2ccccc2C)CC1 the result was 2.485%.
For Cc1nn(C)c(Cl)c1C1CCCN1CC(=O)Nc1cccnc1 (centres undefined) the result was 2.125%.
For COc1ccccc1C(C(=O)O)N1CCCN(C2CCCC2)CC1 (centres undefined) the result was 1.538%.
For CNC(=O)C1(C)CN(S(=O)(=O)c2cccc(OC)c2)CCO1 (centres undefined) the result was 6.481%.
For CC1N(c2cnn(C)c2)C(=O)COC12CCN(c1ccccn1)CC2.O=C(O)C(F)(F)F (centres undefined) the result was -1.113%.
For Cc1cnn(CC2CCCCN2CCn2cncn2)c1 (centres undefined) the result was -5.147%.
For c1cncc(OCCNC2Cc3ccccc3C2)c1 the result was -6.785%.
For O=C(O)C(F)(F)F.O=C(c1ccncc1)N1CCc2ncnc(C3CC3)c2CC1 the result was 17.62%.
For Cc1nc(CC(=O)N2CCCN(c3ccc(C#N)cc3)CC2)cs1 the result was -2.368%.
For CCN(CC)c1ncc2c(O)nc(C3CCNCC3)cc2n1 the result was -0.74%.
For O=C1NCCN1C1CCCN(Cc2nnc(-c3ccc(F)cc3)o2)C1 (centres undefined) the result was 3.759%.
For c1ccc(-c2nc(CNCC3CCCN3c3cccnn3)co2)cc1 (centres undefined) the result was 15.19%.
For CC[C@@H](CO)NC(=O)c1coc(COc2ccc3sc(C)nc3c2)n1 the result was 2.544%.
For [H][C@@]12CCN(C3CCOCC3)C[C@@]1([H])O[C@@H](C(=O)N(C)C)C2 the result was 1.19%.

Repeated from the top, 3 entries:

| structure | Percent Effect |
|---|---|
| `O=C(Cc1ccccc1)N1CCC2(CC(=O)N(c3cccc(F)c3)C2)C1` (centres undefined) | 6.69 |
| `COc1ccsc1C(=O)N1CCCC(n2nc(C)nc2C)C1` (centres undefined) | -2.878 |
| `CN(C)C(=O)N1CCN(CCn2nc3ccccn3c2=O)CC1` | 0.7892 |